These are yes or no findings as the source states them, for the method shown.
B1: monoclonal antibody M3 (antibody, V domains shown)
VH: EVILVESGGGLVKPGGSLRLSCAASGFTFSSHPLSWVRQSPDKRLEWVASISSGGRYTYYPDSVKGRLTISRDNAKNILYLHMNSLRSEDTAMYYCARRGSTATAWFAYWGQGTLVTVSA
VL: DIALTQSPASLAVSLGQRATISCKASQSVDYDGDSYMSWYQQKPGQPPKLLIYGASNLESGIPARFSGSGSGTDFTLNIHPVEEEDAATYYCQQSNEDLPTFGGGTKLEIK
B2: monoclonal antibody N1 (antibody, V domains shown)
VH: EVQLVESGGGLVQPGGSLKLSCAASGFTFSSYGMSWVRQSPDKRLEWVATINNNGGSTYYPDSVKGRFTISRDNAKNTLYLQMSSLKSEDTAVYYCARDAAFDCWGQGTTLTVSS
VL: DIVMSQSPSSLAVSAGEKVTMSCKSSQSLLNSRTRKNYLAWYQQKPGQSPKLLIYWASTRESGVPDRFTGSGSGTDFTLTISSVQAEDLAVYYCKQSYNLFTFGSGTKLEIK
B3: monoclonal antibody C1 (antibody, V domains shown)
VH: EVQLQQSGAELVRPGALVKLSCKASGFNIKDYYMHWVKQRPEEGLEWIGWIDPENGNTIYDPKFQGKASITADTSSNTVRLQLSSLTSEDTAVYYCARERGAYWGQGTLVTVSA
VL: QIVLTQSPAIMSASPGEKVTMTCSASSSVSYMYWFQQKPGSSPRLLIYDTSNLASGVPVRFSGSGSGTSYSLTISRMEAEDAATFYCQQWSSYPLTFGAGTKLELK

These binders were tested on CP of turnip mosaic virus (TuMV) (genus Potyvirus) (Turnip mosaic virus) (assay: dot blot; also Western blot and ELISA).

| Binder | binding |
| --- | --- |
| B1 | no binding |
| B2 | no binding |
| B3 | no binding |

What follows are binders tested on CP of tomato mosaic virus (ToMV) (genus Tobamovirus) (Tomato mosaic virus) (assay: dot blot; also Western blot and ELISA).

| Binder | binding |
| --- | --- |
| B1 | no binding |
| B2 | no binding |
| B3 | no binding |

What follows are binders tested on CP of tomato mottle mosaic virus (ToMMV) (genus Tobamovirus) (Tomato mottle mosaic virus) (assay: dot blot; also Western blot and ELISA).

| Binder | binding |
| --- | --- |
| B1 | no binding |
| B2 | no binding |
| B3 | no binding |

Each binder was assayed on CP of tobacco mosaic virus (TMV) (genus Tobamovirus) (Tobacco mosaic virus) (assay: dot blot; also Western blot and ELISA).

| Binder | binding |
| --- | --- |
| B1 | no binding |
| B2 | no binding |
| B3 | no binding |

The binders below were run on CP of chilli mottle virus (PepMoV) (genus Potyvirus) (chilli mottle virus (PepMoV)) (assay: dot blot; also Western blot and ELISA).

| Binder | binding |
| --- | --- |
| B1 | no binding |
| B2 | no binding |
| B3 | no binding |

What follows are binders tested on CP of chilliveinal mottle virus (PVMV) (genus Potyvirus) (chilliveinal mottle virus (PVMV)) (assay: dot blot; also Western blot and ELISA).

| Binder | binding |
| --- | --- |
| B1 | no binding |
| B2 | no binding |
| B3 | no binding |

From patent US20240239872A1
